B1: glmS ribozyme (parent)
chain: AUAAAAGCGCCAGAACUACAGAAAUGUAGUUGACGAGGAGGAGGUUUAUCGAAUUUUCGGCGGAUGCCUCCAAA

± gives the standard error. Many entries were measured with a wide error. Bounds are passed on as bounds.

The variants in the first data set derive from B1. The experiment in a line: self-cleavage kobs at 10000 uM GlcN6P; higher = faster cleavage; RNA array. As to conditions: with glucosamine-6-phosphate. Put shortly: (§1)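 Tiles of sequenced MiSeq chips were imaged over ~14 h at 37 °C. On them, barcoded ribozyme variants had been transcribed in situ by E. coli RNA polymerase and were tracked via a hybridised Cy3 probe while glucosamine-6-phosphate (40 μM to 10 mM) in HEPES/KCl/Mg(OAc)2 buffer flowed in. Per-tile medians, normalised to baseline and to non-cleaving reference variants, were fit to one- or two-exponential decays for kobs, and weighted Michaelis–Menten fits gave kcat and KM.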
As for U31C G59A, the “self-cleavage kobs at 10000 uM GlcN6P” value came to 1.39e-05 ± 1e-05 s⁻¹.

C10G A12U A64G: the “self-cleavage kobs at 10000 uM GlcN6P” value was found to be 2.09e-05 ± 1.2e-05 s⁻¹.

Turning to A15C U57G, the “self-cleavage kobs at 10000 uM GlcN6P” value was determined as 2.07e-05 ± 1.6e-05 s⁻¹.

For the variant U30C C67A C70G, the “self-cleavage kobs at 10000 uM GlcN6P” value is 2.58e-05 ± 2.2e-05 s⁻¹.

On to C11G A14G, for which the “self-cleavage kobs at 10000 uM GlcN6P” value stood at 1.44e-05 ± 1.4e-05 s⁻¹.

Turning to A12G A48C, the “self-cleavage kobs at 10000 uM GlcN6P” value turned out to be 1.59e-05 ± 1.6e-05 s⁻¹.

With C10A C68U, the “self-cleavage kobs at 10000 uM GlcN6P” value was determined as 0.000314 ± 0.00028 s⁻¹.

Consider C10U A15G, for which the “self-cleavage kobs at 10000 uM GlcN6P” value was 1.73e-05 ± 1.1e-05 s⁻¹.

Consider U30C U45G, for which the “self-cleavage kobs at 10000 uM GlcN6P” value stood at 4.14e-05 ± 2.2e-05 s⁻¹.

On to C16U C50U C71U, for which the “self-cleavage kobs at 10000 uM GlcN6P” value was 3.39e-05 ± 1.8e-05 s⁻¹.

U30A G44U: the “self-cleavage kobs at 10000 uM GlcN6P” value was 2.55e-05 ± 1.7e-05 s⁻¹.

With C16G G44A U54A, the “self-cleavage kobs at 10000 uM GlcN6P” value stood at 3.01e-05 ± 2e-05 s⁻¹.

As to A14C G29U C50G, the “self-cleavage kobs at 10000 uM GlcN6P” value was found to be 2.64e-05 ± 2.3e-05 s⁻¹.

Consider C61U C67G C68G, for which the “self-cleavage kobs at 10000 uM GlcN6P” value was found to be 2.34e-05 ± 1.5e-05 s⁻¹.

On to A52G C58G, for which the “self-cleavage kobs at 10000 uM GlcN6P” value was 1.52e-05 ± 1.4e-05 s⁻¹.

Consider C11G G29A U49G U69G, for which the “self-cleavage kobs at 10000 uM GlcN6P” value amounted to 3.55e-05 ± 2e-05 s⁻¹.

As for A14U A39C C67G, the “self-cleavage kobs at 10000 uM GlcN6P” value is 2.76e-05 ± 1.6e-05 s⁻¹.

Regarding C10A G29C U55A C70G, the “self-cleavage kobs at 10000 uM GlcN6P” value worked out at 2e-05 ± 1.9e-05 s⁻¹.

As for U30G A42U U56A, the “self-cleavage kobs at 10000 uM GlcN6P” value came to 2.89e-05 ± 2.5e-05 s⁻¹.

For the variant A33U C70G, the “self-cleavage kobs at 10000 uM GlcN6P” value turned out to be 1.35e-05 ± 1.1e-05 s⁻¹.

Another data set covers variants of B1. Put plainly: self-cleavage kobs at 2500 uM GlcN6P; higher = faster cleavage; RNA array. As to conditions: with glucosamine-6-phosphate. Put shortly: as §1
Turning to C11U A12G A39C C71U, the “self-cleavage kobs at 2500 uM GlcN6P” value was found to be 3.52e-05 ± 2.1e-05 s⁻¹.

As for C11U U49A A52U C68A, the “self-cleavage kobs at 2500 uM GlcN6P” value amounted to 4.84e-05 ± 3.2e-05 s⁻¹.

In the case of U47C U57C C70U, the “self-cleavage kobs at 2500 uM GlcN6P” value was found to be 2.46e-05 ± 1.9e-05 s⁻¹.

As for A15C U57G, the “self-cleavage kobs at 2500 uM GlcN6P” value is 2.86e-05 ± 2.3e-05 s⁻¹.

On to A42G A48G U54A, for which the “self-cleavage kobs at 2500 uM GlcN6P” value was determined as 4.83e-05 ± 2.9e-05 s⁻¹.

In the case of G13C G40A, the “self-cleavage kobs at 2500 uM GlcN6P” value turned out to be 1.81e-05 ± 1.7e-05 s⁻¹.

As to A12G A39U A53C, the “self-cleavage kobs at 2500 uM GlcN6P” value was found to be 1.37e-05 ± 1.3e-05 s⁻¹.

Turning to U45A U65A, the “self-cleavage kobs at 2500 uM GlcN6P” value worked out at 0.026 ± 0.019 s⁻¹.

As for U30C U46G C70U, the “self-cleavage kobs at 2500 uM GlcN6P” value was 2.85e-05 ± 1.5e-05 s⁻¹.

U45G C58G: the “self-cleavage kobs at 2500 uM GlcN6P” value worked out at 1.95e-05 ± 1.4e-05 s⁻¹.

On to A15U A52G U65G C67U C68A, for which the “self-cleavage kobs at 2500 uM GlcN6P” value amounted to 3.1e-05 ± 2.1e-05 s⁻¹.

For A39C G44U, the “self-cleavage kobs at 2500 uM GlcN6P” value is 1.77e-05 ± 1.4e-05 s⁻¹.

On to A36U C70A, for which the “self-cleavage kobs at 2500 uM GlcN6P” value was found to be 0.000253 ± 0.00014 s⁻¹.

A6G C61G C71G: the “self-cleavage kobs at 2500 uM GlcN6P” value was determined as 4.33e-05 ± 2.5e-05 s⁻¹.

Take C11G A14G: the “self-cleavage kobs at 2500 uM GlcN6P” value came to 1.6e-05 ± 1.6e-05 s⁻¹.

In the case of A42U C68G, the “self-cleavage kobs at 2500 uM GlcN6P” value is 2.49e-05 ± 1.7e-05 s⁻¹.

Turning to C10U A15G G60U C61U U69A C70G, the “self-cleavage kobs at 2500 uM GlcN6P” value amounted to 3.18e-05 ± 3e-05 s⁻¹.

Consider G38U C50A U57C C61U C68U, for which the “self-cleavage kobs at 2500 uM GlcN6P” value was 4.46e-05 ± 2.3e-05 s⁻¹.

As for U45C A48U C71U, the “self-cleavage kobs at 2500 uM GlcN6P” value came out at 4.46e-05 ± 3.3e-05 s⁻¹.

Turning to U49A U69A, the “self-cleavage kobs at 2500 uM GlcN6P” value is 4.42e-05 ± 2.4e-05 s⁻¹.

As for G59U C70A, the “self-cleavage kobs at 2500 uM GlcN6P” value came out at 2.37e-05 ± 1.6e-05 s⁻¹.

On to U31C G37A C50G U69C, for which the “self-cleavage kobs at 2500 uM GlcN6P” value was 2.1e-05 ± 1.9e-05 s⁻¹.

Consider C10U C70A C71U, for which the “self-cleavage kobs at 2500 uM GlcN6P” value turned out to be 2.65e-05 ± 2e-05 s⁻¹.

As for C10U G29A G37U C50A C68A, the “self-cleavage kobs at 2500 uM GlcN6P” value was 2.33e-05 ± 1.9e-05 s⁻¹.

As to G29U A53G U57C C67G U69A, the “self-cleavage kobs at 2500 uM GlcN6P” value was 0.000336 ± 0.0002 s⁻¹.

Take A14C G32U U57G: the “self-cleavage kobs at 2500 uM GlcN6P” value came out at 3.26e-05 ± 2e-05 s⁻¹.

A33U U54A C70A: the “self-cleavage kobs at 2500 uM GlcN6P” value came to 3.58e-05 ± 1.9e-05 s⁻¹.

Regarding C11A U65G, the “self-cleavage kobs at 2500 uM GlcN6P” value worked out at 2.63e-05 ± 2.3e-05 s⁻¹.

As for C10A C67G C68A, the “self-cleavage kobs at 2500 uM GlcN6P” value was 2.9e-05 ± 1.8e-05 s⁻¹.

Take A12U C58A C61A: the “self-cleavage kobs at 2500 uM GlcN6P” value is 3.93e-05 ± 2.9e-05 s⁻¹.

Take U30C U45G: the “self-cleavage kobs at 2500 uM GlcN6P” value came to 3.37e-05 ± 1.9e-05 s⁻¹.

For the variant C16A G63U A64C U69A, the “self-cleavage kobs at 2500 uM GlcN6P” value came to 4.75e-05 ± 2.4e-05 s⁻¹.

Regarding A14U G29C U55A, the “self-cleavage kobs at 2500 uM GlcN6P” value came to 2e-05 ± 1.8e-05 s⁻¹.

As to C10U C50U C70U, the “self-cleavage kobs at 2500 uM GlcN6P” value came out at 2.41e-05 ± 2.1e-05 s⁻¹.

For U30A G44A, the “self-cleavage kobs at 2500 uM GlcN6P” value is 1.68e-05 ± 1.3e-05 s⁻¹.

For the variant U31C C50A G59A C70G, the “self-cleavage kobs at 2500 uM GlcN6P” value stood at 4.7e-05 ± 2.8e-05 s⁻¹.

As for A14U A33G A64G, the “self-cleavage kobs at 2500 uM GlcN6P” value came out at 6.7e-05 ± 3.7e-05 s⁻¹.

Consider C16A A53U C67G, for which the “self-cleavage kobs at 2500 uM GlcN6P” value came out at 5.8e-05 ± 3.7e-05 s⁻¹.

As to C16G U45A C58U, the “self-cleavage kobs at 2500 uM GlcN6P” value turned out to be 2.37e-05 ± 2e-05 s⁻¹.

In the case of C16G U47G C50G C68G, the “self-cleavage kobs at 2500 uM GlcN6P” value amounted to 1.37e-05 ± 1.3e-05 s⁻¹.

Regarding A14U U31A U47A, the “self-cleavage kobs at 2500 uM GlcN6P” value amounted to 0.0416 ± 0.021 s⁻¹.

Turning to A12G U57A, the “self-cleavage kobs at 2500 uM GlcN6P” value was 1.16e-05 ± 9.9e-06 s⁻¹.

Consider C8A U31A C50G A53U C70A, for which the “self-cleavage kobs at 2500 uM GlcN6P” value stood at 3.55e-05 ± 2.9e-05 s⁻¹.

For the variant U49A C58A G62U, the “self-cleavage kobs at 2500 uM GlcN6P” value was 5.2e-05 ± 4.7e-05 s⁻¹.

Take A6G C16G: the “self-cleavage kobs at 2500 uM GlcN6P” value is 2.2e-05 ± 1.8e-05 s⁻¹.

Take A33G C68G: the “self-cleavage kobs at 2500 uM GlcN6P” value amounted to 2.48e-05 ± 1.4e-05 s⁻¹.

As for C10G C67A, the “self-cleavage kobs at 2500 uM GlcN6P” value came to 2.61e-05 ± 2.2e-05 s⁻¹.

A15G A52C: the “self-cleavage kobs at 2500 uM GlcN6P” value was found to be 2.11e-05 ± 1.4e-05 s⁻¹.

For the variant C61U C67G C68G, the “self-cleavage kobs at 2500 uM GlcN6P” value amounted to 0.000152 ± 8.9e-05 s⁻¹.

Take A52G C58G: the “self-cleavage kobs at 2500 uM GlcN6P” value is 1.9e-05 ± 1.6e-05 s⁻¹.

A15C G29U A64G G66C: the “self-cleavage kobs at 2500 uM GlcN6P” value is 3.22e-05 ± 2.9e-05 s⁻¹.

For C68U U69A, the “self-cleavage kobs at 2500 uM GlcN6P” value is 2.46e-05 ± 1.7e-05 s⁻¹.

Take G13C U54A G60U C68G: the “self-cleavage kobs at 2500 uM GlcN6P” value amounted to 2.57e-05 ± 2.6e-05 s⁻¹.

A28C: the “self-cleavage kobs at 2500 uM GlcN6P” value stood at 0.0237 ± 0.013 s⁻¹.

Take A12U U30G U47G A48U U49C U69C C70G: the “self-cleavage kobs at 2500 uM GlcN6P” value is 3e-05 ± 2.9e-05 s⁻¹.

Consider A42U U56C C71U, for which the “self-cleavage kobs at 2500 uM GlcN6P” value worked out at 2.88e-05 ± 2.4e-05 s⁻¹.

A36U A64G U69A C71G: the “self-cleavage kobs at 2500 uM GlcN6P” value was 5.21e-05 ± 2.7e-05 s⁻¹.

On to G43U U54C, for which the “self-cleavage kobs at 2500 uM GlcN6P” value came to 1.62e-05 ± 1.5e-05 s⁻¹.

For the variant G38A, the “self-cleavage kobs at 2500 uM GlcN6P” value is < 1e-05 s⁻¹.

On to A33U C70G, for which the “self-cleavage kobs at 2500 uM GlcN6P” value is 1.81e-05 ± 1.6e-05 s⁻¹.

Variants of B1 are the subject of a further data set. Put plainly: self-cleavage kobs at 160 uM GlcN6P; higher = faster cleavage; RNA array. Particulars: with glucosamine-6-phosphate. Put shortly: as §1
For U46A U47C C70A, the “self-cleavage kobs at 160 uM GlcN6P” value worked out at 2.74e-05 ± 2.1e-05 s⁻¹.

In the case of G38A C58U C68G, the “self-cleavage kobs at 160 uM GlcN6P” value turned out to be 2.26e-05 ± 2.2e-05 s⁻¹.

Consider A42U U55A, for which the “self-cleavage kobs at 160 uM GlcN6P” value came to 1.95e-05 ± 1.9e-05 s⁻¹.

For A42U A53G, the “self-cleavage kobs at 160 uM GlcN6P” value was found to be 2.8e-05 ± 1.7e-05 s⁻¹.

In the case of G37C G66C C71A, the “self-cleavage kobs at 160 uM GlcN6P” value was determined as 5.9e-05 ± 3.1e-05 s⁻¹.

As for U47G A48U C68U, the “self-cleavage kobs at 160 uM GlcN6P” value worked out at 4.16e-05 ± 2.6e-05 s⁻¹.

Consider A36U A64G U69A C71G, for which the “self-cleavage kobs at 160 uM GlcN6P” value was found to be 6.44e-05 ± 3.4e-05 s⁻¹.

Regarding U55G A64C, the “self-cleavage kobs at 160 uM GlcN6P” value turned out to be 2.55e-05 ± 2.2e-05 s⁻¹.
